Source: PubChem BioAssay AID1794845 (National Center for Advancing Translational Sciences (NCATS), 2023)
In all, about 6,900 compounds went through this assay and fewer than 10 were called active. Calls come from the whole dose curve; as a rule, active = well fitted curve in the direction sought with a large enough effect; inconclusive = small, poorly fitted or top-dose-only effect, or another doubt; inactive = no such curve, though single readings can be large or run the other way. Some of the results follow.

Protein sequences, listed by entry. Tags and fused reporters are not part of them. Lines headed by an entry give the natural chain unless they say otherwise; changes in a name come on top.
UniProt C7C422: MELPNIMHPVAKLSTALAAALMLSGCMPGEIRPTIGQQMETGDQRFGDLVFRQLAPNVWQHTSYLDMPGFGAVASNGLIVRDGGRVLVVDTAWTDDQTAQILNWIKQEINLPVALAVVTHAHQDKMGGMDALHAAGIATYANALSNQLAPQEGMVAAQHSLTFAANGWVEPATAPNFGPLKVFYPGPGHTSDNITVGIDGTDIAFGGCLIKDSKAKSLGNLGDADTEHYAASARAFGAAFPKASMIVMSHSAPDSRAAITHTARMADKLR

target: Metallo-beta-lactamase type 2 (Klebsiella pneumoniae) (UniProt C7C422); assay: qHTS to identify inhibitors of the New Delhi Metallo-beta-lactamase (NDM): primary screen against the NCATS Gemini Collection; conditions: NDM-1 enzyme, meropenem hydrolysis, absorbance 300 nm; at 38.4 µM (top of the series) unless noted; note: % of control where 0% means no effect
In short: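 Meropenem hydrolysis (50 uM final) by 2 nM NDM-1 read as 300 nm absorbance after 30 min, following >30 min compound–enzyme preincubation in HEPES pH 7.0 with 1 uM ZnSO4 and 0.01% Tween20.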

Activity % (negative = inhibition), inactive:
Cc1nc(-c2cn(C3CCCN(C(=O)c4cccc(Br)c4)C3)nn2)no1 (stereo not given) 1.3%
Cc1c(-c2ccccc2F)[nH]c2ccc(CNC(=O)C3C=CCN3)cc12 (stereo not given) 3.48%
c1cnc(-c2noc(-c3nc(-c4ccc5c(c4)OCO5)no3)n2)cn1 1.24%
Cc1ccc(-c2noc([C@@H]3Cc4nc[nH]c4CN3C(=O)NC3CCCCC3)n2)cc1 19.1% [at 57.5 µM]
CCN1C(=O)Cc2cc(C(=O)Nc3ccc(F)cc3)ccc21 33.6%
c1cncc(CN2CC[C@H](c3nnc(Cc4c[nH]c5ccccc45)o3)C2)c1 4.49% [at 57.5 µM]
CCCOCC(=O)N1CCc2onc(-c3ccc(C(F)(F)F)cc3)c2C1 64.3%
CN(Cc1cccn1C)C(=O)C1CC1 -2.19% [at 77.1 µM]
CN1CC(=O)N(c2cccnc2)Cc2c1ncnc2N1CCN(c2ncccn2)CC1 10.8%
CCOc1c(CN(C)C(=O)Cn2cccc(OC)c2=O)cccc1OC 1.77%
CN1C[C@H](NC2CCC2)CCC[C@@H](C(=O)NC2CCOCC2)CC1=O -6.09% [at 57.5 µM]
Cc1onc(C(=O)NCc2ccc3[nH]c(-c4ccc(F)cc4)c(C)c3c2)c1CO 9.36%
Cn1cc(CN2CCCC(COc3ccccc3C(=O)N3CCCCC3)C2)c2ccccc21 (stereo not given) 1.2%
CCc1ccccc1NC(=O)N1C[C@@H](F)C[C@H]1C(=O)N1CCc2ccccc2C1 0.167%
Cc1oc2c(c1C(=O)N1CCOCC1)CN(Cc1cccnc1)CC2 -5.86%
O=C(NC1CCCCC1)N[C@H]1C[C@H]2C(=O)N3CCC[C@@H]3C(=O)N2C1 1.76% [at 57.5 µM]
CC(C)NC(=O)N(C1CCOCC1)C1CNC1 7.72%
Cn1c(CN2CCOCC2)nnc1C1CCCN(C(=O)c2cc[nH]c2)C1 (stereo not given) 13.4%
COc1cccc2sc(NC(=O)c3ccc4c(c3)OCCN(C3CCC3)C4)nc12 14.2% [at 57.5 µM]
Cc1ccc(F)c(OC2(C(=O)O)CCN(Cc3cccc(C)n3)CC2)c1 2.82%
CN1CCN(Cc2ccc(-c3cnc4c(OCc5ccccc5)nccn34)cc2)CC1 0.216% [at 57.5 µM]
COC[C@H]1NC(=O)CC[C@H]1C(=O)NCCCc1ccccc1 14%
CCN1CC2(CCN(Cc3cc4c(cc3OC)OCCCO4)CC2)OC1=O 1.78%
CN1CCCC(CN(C)C(=O)c2cc(-c3cnn(CCO)c3)nc3ccccc23)C1 (stereo not given) 0.511%
Cc1ccc(CN2CCC3OCCN(Cc4ccccc4)C(=O)C3C2)o1 (stereo not given) 2.35% [at 57.5 µM]
O=C(CC[C@H]1NC(=O)c2ccccc2NC1=O)Nc1nc(-c2cccnc2)cs1 60%
COCCC(=O)N1CC(c2nc(CCOc3cccc(C)c3)no2)C1 -5.55%
O=C(NCc1ccc2c(c1)OCO2)C1NCCc2[nH]cnc21 (stereo not given) 13%
O=C(c1cccs1)N1CCN2CCS(=O)(=O)N(C3CC3)C(=O)C2C1 (stereo not given) 5.15%
Cc1noc(-c2ccncc2)c1C(=O)NCCCCc1ccccc1 0.418%
COc1ccc(C(=O)N2CCC(O)(CO)CC2)c(OC)c1OC 47.8%
CCOc1cccc(CN(C)C(=O)CN2CC3(CCN(C)CC3)CC2=O)c1 -1.71%
CN(Cc1cc(C2CC2)n[nH]1)c1cc(C2CC(N)C2)nc(N)n1 (stereo not given) 14.8%
CC(C)(C)C(=O)N1CC[C@@H](CC(=O)O)[C@@H](CCN2CCC[C@H]2C(N)=O)C1 11.5% [at 57.5 µM]
Oc1ccc(NCCN2CCCC2)cc1 57.2% [at 77.1 µM]
COCCNC(=O)C1CC(c2ccccc2)CN(C(=O)NCc2ccccc2)C1 (stereo not given) -6.59%
O=C(NCc1ccc(Cl)cc1)c1ccc2cc[nH]c2n1 25.8% [at 57.5 µM]
O=C(O)C1CN(C(=O)c2ccco2)CCN(C2CCOCC2)C1 (stereo not given) 2.43%
COc1ccc(-c2nnc3n2CCN([S+](=O)([O-])c2c(C)noc2C)C3)cc1 38.4%
COc1ccc(C2=NOC3(CCN([S+](=O)([O-])c4cccc(C(F)(F)F)c4)C3)C2)cc1 (stereo not given) 3.67%
C[C@@]1(O)CCN(Cc2ccc(Br)o2)C[C@H]1N1CCCC1 10.4%
COc1ccc2c(c1)C(COCc1ccc(C(=O)O)cc1)=CC(C)(C)CO2 -1.52%
CC(C)Oc1ccc2c(NC(=O)CN3CCCC3=O)nn(Cc3ccccc3)c2c1 23.4%
COc1ccc(CN2CC[C@H](c3nc(C)no3)[C@H](NC(=O)C3CC3)C2)cc1 -9.65%
O=C1COc2ccc(Nc3ccc(C(F)(F)F)cc3)nc2CN1 19.7% [at 57.5 µM]
NS(=O)(=O)c1ccc(F)c(C(=O)NCc2noc(-c3ccco3)n2)c1 13.8%
O=C1CN(Cc2ccc(Cl)cc2)CCN1c1ccc(Cl)nn1 0.941% [at 57.5 µM]
Cc1ccc(N2C(=S)N[C@H]3[C@@H](O)[C@H](O)C[C@@H](C(=O)N4CCCCC4)[C@H]32)cc1 59.6% [at 57.5 µM]
COc1cc2c(cc1CN1CCCC(O)(CN(C)C)C1)OCCCO2 (stereo not given) 21.9%
CSCC[C@@H]1NC(=O)c2cc(NC(=O)c3ccc(-n4cnnn4)cc3)ccc2NC1=O 10.2%
Cc1nc(C(=O)N2CC[C@H](NC(=O)c3cnccn3)C[C@H]2C(=O)N[C@@H](Cc2cccs2)C(N)=O)cs1 0.0804%
O=C(N[C@@H]1CN(C(=O)c2[nH]nc3c2CCc2ccccc2-3)CC[C@@H]1CO)c1ccccc1 3.28%
O=C(NCCCn1ccnn1)c1cccc(S(=O)(=O)N2CCOCC2)c1 12.3%
COC(=O)N1CCC2(CC1)C(=O)NN=C2c1ccncc1 3.59% [at 57.5 µM]
COc1ccc(-c2cc(C(=O)NCc3c(C)cc(C)[nH]c3=O)c3c(c2)N(C)CCO3)cn1 10.6% [at 57.5 µM]
CCN(CC)c1cc(CCC(=O)NCCc2ccccn2)ccn1 8.43%
COCCN1CCCC2(CCN(c3ccc4ccccc4n3)C2)C1=O (stereo not given) 8.55%
O=C(CCc1ccc2c(c1)CNCCO2)NCC1CC1 5.25%
COc1ccccc1-n1nc(Cc2ccccc2)n(CC(=O)NC(C)C2CC2)c1=O (stereo not given) -0.0357%
CC(C)Oc1ccc(C2(C(=O)N3C[C@@H](C)[C@](O)(C4CC4)C3)CCCC2)cc1 8.52%
O=C(C1CC(=O)N(C2CC2)C1)N1CCC(Oc2cccnc2)CC1 (stereo not given) 0.493%
COc1ccc(CC(=O)NC2CCN(c3nnc4cccc(C)n34)CC2)cc1 0.816%
CCOc1ccc(C2CC(=O)Nc3c2c(C)nn3CC(=O)O)c(OCC)c1C (stereo not given) 0.112%
CC(C)NC(=O)C[C@@H]1O[C@H](CNCc2ccc(F)cc2)[C@@H](O)[C@H]1O 3.44% [at 57.5 µM]
NC(=O)C1(c2nc(C3CCOC3)nn2-c2cccc3cccnc23)CC1 (stereo not given) 1.04%
CC(C)[C@@H]1CN(C(=O)c2scc3c2CCCC3)C[C@H]1NS(C)(=O)=O 0.0991%
COCCC(=O)N1CCC2(CCC2NC(=O)COC)CC1 (stereo not given) -5.44%
CNC(=O)[C@@H]1CN(C(=O)c2cc(C)n(CCOC)c2C)C[C@H]1COC 22.4%
CN1CC(=O)N(c2ccccc2F)Cc2c1ncnc2N1CCN(c2ncccn2)CC1 1.86%
CC(=O)N1CCC(C(=O)NCc2cccnc2N(C)Cc2ccccc2)CC1 15.2%
CC(C)(C)CC(=O)NC[C@H]1O[C@H](Cc2cc(-c3ccc(F)cc3)on2)CC[C@@H]1O 0.544% [at 57.5 µM]
O=C(CCc1ccccc1)NCC(=O)N1CCN(c2ccccn2)CC1 13.2%
CN(C)C[C@@H]1CN(S(C)(=O)=O)C[C@H]1NC(=O)c1ccc2[nH]ccc2c1 5.2%
CCn1c(C2CCCN(S(=O)(=O)c3cccc4nonc34)C2)nn(C)c1=O (stereo not given) -0.373%
COc1cccc(CC(=O)N[C@@H]2C[C@H](Cn3cc(-c4cccnc4)nn3)[C@@H](O)[C@H]2O)c1 0.332%
COc1ccc(CN2C[C@@H](CO)[C@H](c3ccccn3)C2)cc1C 11.6%
COc1ccc(CCN2CCCC(CN(C)Cc3cnc[nH]3)C2)cc1 (stereo not given) 5.24%
CNC(=O)c1cn2c(n1)CN([S+](C)(=O)[O-])CC2 -0.329% [at 57.5 µM]
COCC1CN(C(C)=O)CC12CCN(C(=O)c1nn(C)c3ccccc13)CC2 (stereo not given) 1.31%
COc1cc(-c2onc(C)c2C(=O)NCCCOC(C)C)cc(OC)c1OC -0.808%
CNC(=O)c1cc(C2CC2)nc2onc(C3CCN(C(=O)c4ccc(Cl)nc4)C3)c12 (stereo not given) 14.8%
O=C(c1ccccc1OC(F)(F)F)N1CCC2(CC1)CC(O)CCO2 (stereo not given) 5.28%
CC1(C)CN(C(=O)COc2ccccc2)CC(=O)N(Cc2ccccc2)C1 -1.11%
CCC(C(=O)N(C)Cc1ccc(OC)c2ncccc12)n1cccn1 (stereo not given) -0.226%
CN(CC1Cc2ccccc2O1)C(=O)c1coc(COc2ccc3c(c2)OCO3)n1 (stereo not given) -0.441%

At a glance, part of the list above.
Activity % (negative = inhibition), inactive:
O=C(NCc1ccc2c(c1)OCO2)C1NCCc2[nH]cnc21 (stereo not given) 13%
O=C(c1cccs1)N1CCN2CCS(=O)(=O)N(C3CC3)C(=O)C2C1 (stereo not given) 5.15%
Cc1noc(-c2ccncc2)c1C(=O)NCCCCc1ccccc1 0.418%
COc1ccc(C(=O)N2CCC(O)(CO)CC2)c(OC)c1OC 47.8%
